Source: doi:10.1101/2025.11.24.690135
These are yes or no findings as the source states them, for the method shown. Binding seen in cells or lysates may run through a third protein. Some entries that bind do so weakly or less than the wild type. Each block holds one molecule with its values, some of them ahead of it.

Amino acid sequences for entries named in this document (tags omitted).
UniProt Q8N122, whole entry: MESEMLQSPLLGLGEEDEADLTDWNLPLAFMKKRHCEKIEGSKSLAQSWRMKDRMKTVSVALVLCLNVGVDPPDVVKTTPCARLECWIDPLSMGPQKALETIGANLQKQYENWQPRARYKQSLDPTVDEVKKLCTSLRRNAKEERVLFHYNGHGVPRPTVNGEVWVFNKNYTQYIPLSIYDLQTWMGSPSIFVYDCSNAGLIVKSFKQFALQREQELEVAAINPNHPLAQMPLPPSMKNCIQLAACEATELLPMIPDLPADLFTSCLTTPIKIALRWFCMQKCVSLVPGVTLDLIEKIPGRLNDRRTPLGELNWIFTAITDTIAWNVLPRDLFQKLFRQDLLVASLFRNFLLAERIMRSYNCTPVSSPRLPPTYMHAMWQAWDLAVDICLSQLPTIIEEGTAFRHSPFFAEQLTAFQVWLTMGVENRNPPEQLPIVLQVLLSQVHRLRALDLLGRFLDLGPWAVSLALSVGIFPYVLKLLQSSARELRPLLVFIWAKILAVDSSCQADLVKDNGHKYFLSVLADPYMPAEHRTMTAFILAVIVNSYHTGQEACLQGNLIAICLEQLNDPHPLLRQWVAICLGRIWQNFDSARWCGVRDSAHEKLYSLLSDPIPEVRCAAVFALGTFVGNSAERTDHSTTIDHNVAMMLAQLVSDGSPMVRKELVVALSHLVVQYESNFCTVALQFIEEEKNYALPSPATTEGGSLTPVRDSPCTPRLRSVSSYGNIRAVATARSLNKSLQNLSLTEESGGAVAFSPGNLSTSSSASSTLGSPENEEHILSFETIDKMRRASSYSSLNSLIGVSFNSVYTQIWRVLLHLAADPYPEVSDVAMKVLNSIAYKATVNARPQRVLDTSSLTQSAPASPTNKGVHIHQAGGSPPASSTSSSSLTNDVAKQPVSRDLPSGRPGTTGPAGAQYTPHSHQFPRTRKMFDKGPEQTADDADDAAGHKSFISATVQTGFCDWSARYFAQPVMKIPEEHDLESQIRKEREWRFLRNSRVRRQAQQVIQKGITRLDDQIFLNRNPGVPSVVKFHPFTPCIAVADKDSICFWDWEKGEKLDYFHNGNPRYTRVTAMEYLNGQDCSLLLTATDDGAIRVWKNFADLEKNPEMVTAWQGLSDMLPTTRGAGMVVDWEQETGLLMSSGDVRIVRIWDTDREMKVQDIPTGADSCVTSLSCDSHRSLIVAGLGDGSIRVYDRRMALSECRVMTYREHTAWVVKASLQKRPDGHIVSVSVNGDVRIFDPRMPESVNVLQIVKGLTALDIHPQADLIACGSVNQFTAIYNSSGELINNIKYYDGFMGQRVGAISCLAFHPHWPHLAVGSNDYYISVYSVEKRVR
UniProt O43524, whole entry: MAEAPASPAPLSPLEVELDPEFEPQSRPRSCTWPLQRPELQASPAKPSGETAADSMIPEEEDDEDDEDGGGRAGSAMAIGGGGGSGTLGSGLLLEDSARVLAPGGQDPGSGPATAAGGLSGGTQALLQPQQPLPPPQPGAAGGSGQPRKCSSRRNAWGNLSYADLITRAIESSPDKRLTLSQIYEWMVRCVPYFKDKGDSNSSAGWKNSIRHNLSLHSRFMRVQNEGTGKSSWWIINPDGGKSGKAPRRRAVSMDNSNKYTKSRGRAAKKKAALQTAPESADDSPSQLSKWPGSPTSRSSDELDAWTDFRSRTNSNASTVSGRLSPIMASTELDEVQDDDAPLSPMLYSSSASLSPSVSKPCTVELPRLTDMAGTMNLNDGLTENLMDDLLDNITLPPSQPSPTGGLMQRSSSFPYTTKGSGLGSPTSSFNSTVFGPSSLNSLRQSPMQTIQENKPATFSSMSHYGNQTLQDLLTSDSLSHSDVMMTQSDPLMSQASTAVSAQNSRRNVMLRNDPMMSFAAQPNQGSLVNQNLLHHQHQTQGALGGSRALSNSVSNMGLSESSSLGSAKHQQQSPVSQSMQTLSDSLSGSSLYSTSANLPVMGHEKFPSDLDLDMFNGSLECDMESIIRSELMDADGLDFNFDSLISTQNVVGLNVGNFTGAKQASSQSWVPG
UniProt O14746, whole entry: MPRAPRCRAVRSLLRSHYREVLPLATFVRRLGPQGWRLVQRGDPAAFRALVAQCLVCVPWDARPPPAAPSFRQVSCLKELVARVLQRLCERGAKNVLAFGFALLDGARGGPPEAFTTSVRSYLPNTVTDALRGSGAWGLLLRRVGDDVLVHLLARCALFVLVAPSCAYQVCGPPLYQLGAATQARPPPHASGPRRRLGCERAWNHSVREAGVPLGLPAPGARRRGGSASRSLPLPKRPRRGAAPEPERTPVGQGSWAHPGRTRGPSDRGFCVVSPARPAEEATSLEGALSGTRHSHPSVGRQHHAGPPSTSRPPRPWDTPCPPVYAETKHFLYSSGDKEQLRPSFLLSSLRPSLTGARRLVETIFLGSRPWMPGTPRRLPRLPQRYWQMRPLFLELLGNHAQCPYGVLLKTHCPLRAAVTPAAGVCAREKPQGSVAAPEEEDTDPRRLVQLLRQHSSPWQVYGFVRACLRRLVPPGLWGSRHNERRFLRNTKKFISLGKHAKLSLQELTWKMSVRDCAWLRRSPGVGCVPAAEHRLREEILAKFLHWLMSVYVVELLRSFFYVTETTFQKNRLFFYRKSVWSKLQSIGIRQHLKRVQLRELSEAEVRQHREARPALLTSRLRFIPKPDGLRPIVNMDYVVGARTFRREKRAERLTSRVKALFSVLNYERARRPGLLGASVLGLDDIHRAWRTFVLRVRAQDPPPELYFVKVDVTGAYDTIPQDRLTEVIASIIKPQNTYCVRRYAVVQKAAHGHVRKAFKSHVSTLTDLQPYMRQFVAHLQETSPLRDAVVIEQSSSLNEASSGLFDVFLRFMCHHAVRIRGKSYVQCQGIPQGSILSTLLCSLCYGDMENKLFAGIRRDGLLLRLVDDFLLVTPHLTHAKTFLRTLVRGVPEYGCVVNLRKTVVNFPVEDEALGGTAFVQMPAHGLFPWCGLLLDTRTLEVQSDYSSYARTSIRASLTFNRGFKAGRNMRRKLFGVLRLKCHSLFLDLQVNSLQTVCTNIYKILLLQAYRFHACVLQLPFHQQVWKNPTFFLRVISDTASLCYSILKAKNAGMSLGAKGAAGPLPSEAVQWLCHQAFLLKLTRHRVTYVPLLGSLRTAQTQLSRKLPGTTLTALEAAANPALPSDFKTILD
UniProt P18848, whole entry: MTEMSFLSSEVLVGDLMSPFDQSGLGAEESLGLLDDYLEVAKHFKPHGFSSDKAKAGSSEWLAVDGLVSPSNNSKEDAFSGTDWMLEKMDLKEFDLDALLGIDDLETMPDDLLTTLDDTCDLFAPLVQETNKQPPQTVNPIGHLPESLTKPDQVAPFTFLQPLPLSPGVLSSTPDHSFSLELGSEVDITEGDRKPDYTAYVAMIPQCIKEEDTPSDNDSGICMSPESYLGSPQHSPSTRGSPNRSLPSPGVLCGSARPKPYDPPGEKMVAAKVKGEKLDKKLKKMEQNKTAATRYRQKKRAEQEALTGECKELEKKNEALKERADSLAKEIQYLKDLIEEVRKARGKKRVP
UniProt Q9BPZ7, whole entry: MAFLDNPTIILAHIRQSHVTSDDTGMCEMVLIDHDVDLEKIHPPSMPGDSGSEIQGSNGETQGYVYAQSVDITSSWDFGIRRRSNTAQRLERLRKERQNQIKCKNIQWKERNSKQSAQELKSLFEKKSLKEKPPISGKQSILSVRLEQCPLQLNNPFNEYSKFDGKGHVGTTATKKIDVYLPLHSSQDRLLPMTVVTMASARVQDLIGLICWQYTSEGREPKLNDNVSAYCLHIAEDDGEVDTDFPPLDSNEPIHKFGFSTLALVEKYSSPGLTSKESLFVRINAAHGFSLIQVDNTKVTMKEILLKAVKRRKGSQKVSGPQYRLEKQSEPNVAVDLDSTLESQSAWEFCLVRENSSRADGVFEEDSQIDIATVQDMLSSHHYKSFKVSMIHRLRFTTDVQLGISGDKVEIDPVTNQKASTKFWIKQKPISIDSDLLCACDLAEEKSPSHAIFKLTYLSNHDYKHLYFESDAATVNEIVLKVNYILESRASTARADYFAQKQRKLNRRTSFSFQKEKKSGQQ
UniProt P01106, whole entry: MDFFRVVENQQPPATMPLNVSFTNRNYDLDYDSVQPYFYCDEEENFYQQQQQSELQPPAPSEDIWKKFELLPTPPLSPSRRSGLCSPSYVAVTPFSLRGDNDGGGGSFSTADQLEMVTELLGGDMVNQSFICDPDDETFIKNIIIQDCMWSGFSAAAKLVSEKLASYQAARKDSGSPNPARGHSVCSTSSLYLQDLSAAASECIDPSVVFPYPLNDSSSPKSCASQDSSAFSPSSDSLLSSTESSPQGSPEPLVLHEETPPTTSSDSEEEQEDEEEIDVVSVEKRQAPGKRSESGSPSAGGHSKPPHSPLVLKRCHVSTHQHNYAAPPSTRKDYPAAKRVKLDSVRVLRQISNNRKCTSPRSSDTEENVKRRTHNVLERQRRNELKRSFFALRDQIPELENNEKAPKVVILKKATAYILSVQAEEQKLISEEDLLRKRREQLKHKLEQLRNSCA
UniProt Q9NT62, whole entry: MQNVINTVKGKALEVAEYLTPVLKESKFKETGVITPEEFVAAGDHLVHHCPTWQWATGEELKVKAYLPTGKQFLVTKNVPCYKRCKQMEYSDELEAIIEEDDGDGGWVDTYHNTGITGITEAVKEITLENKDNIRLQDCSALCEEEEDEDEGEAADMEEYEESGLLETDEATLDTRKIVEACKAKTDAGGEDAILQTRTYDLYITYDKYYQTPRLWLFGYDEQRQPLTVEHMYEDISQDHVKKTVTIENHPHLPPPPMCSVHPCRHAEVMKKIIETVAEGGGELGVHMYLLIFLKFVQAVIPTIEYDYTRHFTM
UniProt P31749, whole entry: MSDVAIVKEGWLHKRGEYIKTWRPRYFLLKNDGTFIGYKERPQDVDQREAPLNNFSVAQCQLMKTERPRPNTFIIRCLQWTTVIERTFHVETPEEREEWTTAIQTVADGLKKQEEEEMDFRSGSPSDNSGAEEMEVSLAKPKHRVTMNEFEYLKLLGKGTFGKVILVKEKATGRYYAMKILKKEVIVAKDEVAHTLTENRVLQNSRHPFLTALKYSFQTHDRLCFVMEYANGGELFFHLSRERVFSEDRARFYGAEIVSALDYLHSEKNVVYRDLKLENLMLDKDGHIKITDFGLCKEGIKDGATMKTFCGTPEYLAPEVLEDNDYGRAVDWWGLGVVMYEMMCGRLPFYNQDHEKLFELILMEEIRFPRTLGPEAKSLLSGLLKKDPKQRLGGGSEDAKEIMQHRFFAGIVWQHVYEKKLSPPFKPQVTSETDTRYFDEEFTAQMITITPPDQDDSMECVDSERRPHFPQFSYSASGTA

Columns and labels:
[1] = biological target: Rapamycin-insensitive companion of mammalian target of rapamycin, endogenous (human (endogenous in iPSC-RPE)) (UniProt Q6R327); test: co-IP
[2] = biological target: Regulatory-associated protein of mTOR, endogenous (human (endogenous in iPSC-RPE)) (UniProt Q8N122); test: co-IP
[3] = biological target: forkhead box O3, endogenous (human (endogenous in iPSC-RPE)) (UniProt O43524); test: co-IP
[4] = biological target: telomerase reverse transcriptase, endogenous (human (endogenous in iPSC-RPE)) (UniProt O14746); test: co-IP
[5] = biological target: activating transcription factor 4, endogenous (human (endogenous in iPSC-RPE)) (UniProt P18848); test: co-IP
[6] = biological target: MAPKAP1 (mTORC2 subunit), endogenous (human (endogenous in iPSC-RPE)), Q9BPZ7; test: co-IP; settings: remark: other sources report otherwise
Magenta-MAPKAP1, Q9BPZ7 = test: FRET or BRET; settings: remark: other sources report otherwise

Molecule: AKT serine/threonine kinase 2, overexpressed (AKT2 OE) (from UniProt P31751 1-481)
- binding [1]: binds weakly
- binding [2]: binds

Molecule: MYC, endogenous (from UniProt P01106 1-454)
- binding [3]: binds
- binding [4]: binds

Molecule: autophagy related 3, endogenous (from UniProt Q9NT62 1-314)
- binding [5]: binds

B3: RFP-AKT2, P31751 1-481 (protein)
chain: MNEVSVIKEGWLHKRGEYIKTWRPRYFLLKSDGSFIGYKERPEAPDQTLPPLNNFSVAECQLMKTERPRPNTFVIRCLQWTTVIERTFHVDSPDEREEWMRAIQMVANSLKQRAPGEDPMDYKCGSPSDSSTTEEMEVAVSKARAKVTMNDFDYLKLLGKGTFGKVILVREKATGRYYAMKILRKEVIIAKDEVAHTVTESRVLQNTRHPFLTALKYAFQTHDRLCFVMEYANGGELFFHLSRERVFTEERARFYGAEIVSALEYLHSRDVVYRDIKLENLMLDKDGHIKITDFGLCKEGISDGATMKTFCGTPEYLAPEVLEDNDYGRAVDWWGLGVVMYEMMCGRLPFYNQDHERLFELILMEEIRFPRTLSPEAKSLLAGLLKKDPKQRLGGGPSDAKEVMEHRFFLSINWQDVVQKKLLPPFKPQVTSEVDTRYFDDEFTAQSITITPPDRYDSLGLLELDQRTHFPQFSYSASIRE
- binding (Magenta-MAPKAP1, Q9BPZ7): no binding

Other lines, results leading:

- binding [1]: binds
- binding [2]: binds weakly
Molecule: AKT serine/threonine kinase 1, overexpressed (AKT1 OE) (from UniProt P31749 1-480)

- binding [3]: no binding
Molecule: telomerase reverse transcriptase, endogenous (from UniProt O14746 1-1132)

- binding [4]: no binding
Molecule: forkhead box O3, endogenous (from UniProt O43524 1-673)

- binding [5]: binds
B1: autophagy related 4B cysteine peptidase, endogenous (protein, UniProt Q9Y4P1 1-393)
chain: MDAATLTYDTLRFAEFEDFPETSEPVWILGRKYSIFTEKDEILSDVASRLWFTYRKNFPAIGGTGPTSDTGWGCMLRCGQMIFAQALVCRHLGRDWRWTQRKRQPDSYFSVLNAFIDRKDSYYSIHQIAQMGVGEGKSIGQWYGPNTVAQVLKKLAVFDTWSSLAVHIAMDNTVVMEEIRRLCRTSVPCAGATAFPADSDRHCNGFPAGAEVTNRPSPWRPLVLLIPLRLGLTDINEAYVETLKHCFMMPQSLGVIGGKPNSAHYFIGYVGEELIYLDPHTTQPAVEPTDGCFIPDESFHCQHPPCRMSIAELDPSIAVGFFCKTEDDFNDWCQQVKKLSLLGGALPMFELVELQPSHLACPDVLNLSLDSSDVERLERFFDSEDEDFEILSL

- binding [6]: no binding
B2: AKT serine/threonine kinase 2, overexpressed (AKT2 OE), P31751 1-481 (protein)
chain: B3 chain
